Measured values as given in PMC11879899.
No constants are given. Whether binding was seen depends on the method and setting. Binding seen in cells or lysates may run through a third protein.

The chains behind the UniProt entries cited, without tags or fusion partners.
UniProt Q99961: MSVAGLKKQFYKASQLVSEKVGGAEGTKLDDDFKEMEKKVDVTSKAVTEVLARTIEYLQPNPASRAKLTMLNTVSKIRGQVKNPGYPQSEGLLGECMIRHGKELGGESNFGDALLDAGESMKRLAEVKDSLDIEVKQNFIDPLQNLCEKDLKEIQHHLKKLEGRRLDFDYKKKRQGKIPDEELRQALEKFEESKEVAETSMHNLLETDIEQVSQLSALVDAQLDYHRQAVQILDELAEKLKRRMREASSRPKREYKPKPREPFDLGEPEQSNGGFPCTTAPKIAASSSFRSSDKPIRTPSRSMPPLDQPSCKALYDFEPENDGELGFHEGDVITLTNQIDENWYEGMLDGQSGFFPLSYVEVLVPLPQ

Target: ferritin heavy chain 1 (FTH1) (human (endogenous in FARAGE and SUDHL8)) (UniProt P02794)
Assay: co-IP; coimmunoprecipitation of SH3GL1 and FTH1 in FARAGE and SUDHL8 cells; which protein was precipitated is not told

binding: no binding
Substance: SH3GL1 (endophilin A2) (from UniProt Q99961 1-368)
